Mtb heat-shock: 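Assay on Mycobacterium tuberculosis, filed only as a heat shock assay from Cornell; the read-out is not stated. The concentration is filed as 10 mM, unlikely as a test dose, so the dose is not known. Direction is inferred from retests: higher values go with stronger inhibition. About 69,000 compounds were tested under these conditions; 1.4% (about 930) showed 50% or more at least once.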
LdMetRS: 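Methionyl-tRNA synthetase (putative), Leishmania donovani (UniProt E9BF75). Primary screen of methionyl-tRNA synthetase; the read-out is not stated. The test concentration is not given. The values are filed as inhibition. Size under these conditions: about 68,000 compounds, about 24 of them at 50% or above in at least one test.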
Mtb growth Cornell: 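Whole-cell assay for inhibitors of Mycobacterium tuberculosis growth, labelled Cornell in the record; the read-out is not stated. The concentration is filed as 10 mM, unlikely as a test dose, so the dose is not known. Higher means stronger inhibition (inferred from two other growth screens of the library). Size under these conditions: about 53,000 compounds, about 900 of them at 50% or above in at least one test.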

The chains behind the UniProt entries cited, without tags or fusion partners.
UniProt E9BF75, entry or part of it: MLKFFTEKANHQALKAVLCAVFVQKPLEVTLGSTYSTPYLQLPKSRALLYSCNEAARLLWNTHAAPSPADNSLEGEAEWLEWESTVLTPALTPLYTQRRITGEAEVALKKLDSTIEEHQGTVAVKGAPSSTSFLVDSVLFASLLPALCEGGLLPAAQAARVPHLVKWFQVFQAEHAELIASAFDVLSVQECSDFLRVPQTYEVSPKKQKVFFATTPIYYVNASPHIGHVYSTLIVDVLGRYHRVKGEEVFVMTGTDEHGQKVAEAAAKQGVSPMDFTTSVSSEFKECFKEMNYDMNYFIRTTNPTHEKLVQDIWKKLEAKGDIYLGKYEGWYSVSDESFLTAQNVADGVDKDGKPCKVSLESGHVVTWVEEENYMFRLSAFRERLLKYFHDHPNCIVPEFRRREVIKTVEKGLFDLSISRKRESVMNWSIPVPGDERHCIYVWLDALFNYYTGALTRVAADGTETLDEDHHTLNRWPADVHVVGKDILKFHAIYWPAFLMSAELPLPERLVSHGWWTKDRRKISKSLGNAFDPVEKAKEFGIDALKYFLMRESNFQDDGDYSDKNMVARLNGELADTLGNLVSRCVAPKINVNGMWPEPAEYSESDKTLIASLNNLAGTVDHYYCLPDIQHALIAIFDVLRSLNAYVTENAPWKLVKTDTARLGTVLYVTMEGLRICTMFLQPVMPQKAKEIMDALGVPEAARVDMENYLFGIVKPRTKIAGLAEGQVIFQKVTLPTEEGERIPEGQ

All values are in %.
The record does not define 0% and 100%; most values in the screen are far below 50% and negative numbers occur (in some assays of this library far below -100).
Compounds were drawn at random from those tested, without regard to their results.
A dash means the value is not listed here; it may have been measured.

| structure | Mtb heat-shock | LdMetRS | Mtb growth Cornell |
|---|---|---|---|
| `Cc1cccc(CN2CCCC3(CCN(C4CCSCC4)C3)C2=O)c1` (stereo not shown) | 68.24 | 8.219 | -7.668 |
| `CC(C)(C)Oc1ccc(C(=O)N2CCOCC2c2ncon2)cc1` (stereo not shown) | 7.611 | 2.507 | - |
| `CCc1cnc(N2CCC3(CC2)CCN(c2cnn(C)c2)C3=O)nc1` | -31.59 | 6.884 | -30.14 |
| `CCN(CC)CC(=O)NCc1cccnc1-n1cnc2ccccc21` | 25.86 | 9.341 | - |
| `Cc1cc(CN(CCO)c2ccccc2)on1` | 4.055 | 8.075 | 1.633 |
| `Cc1cc(CN2CC[C@H]3[C@H]2CCN3C)oc1C` | - | 12.78 | - |
| `CCC(NCCn1cc(C)cn1)C(=O)Nc1cc(C)on1` (stereo not shown) | -152.5 | 8.157 | - |
| `Cc1nnc(CN(Cc2ccccc2C(F)(F)F)C2CC2)o1` | 0.3153 | 10.29 | 30.89 |
| `CCc1noc(C(C)N2CCC(NS(=O)(=O)c3ccccc3)CC2)n1` (stereo not shown) | -7.796 | 7.796 | 8.789 |
| `COC(C)(C)CNC(=O)C1CCC(=O)N(C2CCCC2)C1` (stereo not shown) | -9.958 | - | - |
| `O=C(NC[C@]12COC[C@H]1CN(Cc1nccs1)C2)c1ccccc1` | - | 12.86 | - |
| `FC(F)(F)c1cc(C2CCCN(Cc3cccnc3)C2)n[nH]1` (stereo not shown) | -23.23 | 11.85 | - |
| `CC[C@@H](CO)NC(=O)c1coc(COc2ccc(OC)cc2)n1` | 7.268 | 15.24 | 14.59 |
| `O=C(NCC1CCS(=O)(=O)C1)Nc1ccccn1` (stereo not shown) | -20.23 | 2.375 | -46.09 |
| `COc1cccc(OCC2CCCN(C(=O)Cc3cccc(O)c3)C2)c1` (stereo not shown) | -6.78 | 14.12 | 21.43 |
| `Cn1cnnc1-c1ccnc(NCc2ccccc2)c1` | -21.58 | 19.62 | - |
| `COc1nn(C)cc1C(=O)NCC(OC)c1ccccc1C` (stereo not shown) | 4.998 | 4.348 | -8.063 |
| `CC(C)n1cc(CN2CCCN(C(=O)c3cccnc3O)CC2)cn1` | -10.22 | 15.72 | -4.967 |
| `Cc1cc(NC(=O)CN2CCn3c(nnc3-c3ccccc3)C2)no1` | -0.312 | -0.3436 | -6.571 |
| `O=C1CCC2(CCCN(Cc3nccs3)C2)N1CC1CC1` (stereo not shown) | - | 3.846 | - |
| `[H][C@@]12CN(C(=O)c3cccc(C)n3)C[C@]1([H])OCCN2C(C)C` | 19.06 | - | 7.464 |
| `Cc1cccc(C)c1OCC(=O)Nc1cccn(C)c1=O` | -7.89 | 2.618 | 22.66 |
| `Cl.Cl.c1csc(CN2CCc3c(CNc4nncs4)cncc3C2)c1` | 1.448 | - | -0.06383 |
| `O=C1COC2(CCN(Cc3ccco3)CC2)CN1CCn1cccn1` | - | 14.29 | - |
| `CC(CNCc1ccncc1)Oc1ccccn1.Cl` (stereo not shown) | -9.434 | - | - |
| `O=C(O)C(F)(F)F.[H][C@@]12CN(Cc3nccs3)C[C@@H](C(=O)N3CCOCC3)[C@]1([H])CCO2` | 1.897 | - | -32.48 |
| `CC(=O)N1CCC(n2nccc2-c2cnc(N3CCCC3)nc2)CC1` | -17.06 | 12.86 | 10.69 |
| `CCOc1ccc(C(=O)NCCCNc2ncccn2)cc1` | -4.686 | 8.211 | -12.23 |
| `Cc1cc(C)n(Cc2ccc(-c3noc(C(=O)NCCCO)n3)cc2)n1` | -3.544 | 6.989 | 8.175 |
| `COCCN(C(=O)c1ccoc1C)c1ccc(C#N)cc1` | -1.413 | 4.57 | 23.52 |
| `Cn1c(C2CC2)nc2c1CCN(Cc1nc(-c3ccsc3)no1)C2` | 13.01 | 10.61 | - |
| `Cl.O=C(c1ccccc1Cl)N1CCN(CCc2ccccn2)CC1` | -2.792 | - | 29.72 |
| `CC(=O)NCCNC(=O)NCCc1c(C)cc(C)cc1C` | -7.295 | 9.749 | - |
| `Fc1cnc(N2CCC3(CC2)CC(OCc2cccnc2)CO3)nc1.O=C(O)C(F)(F)F.O=C(O)C(F)(F)F` (stereo not shown) | -11.94 | - | 8.704 |
| `CC1CCN(CCNC(=O)C2CCN(C(=O)C3CC3)CC2)CC1` | -3.875 | 13.04 | -35.23 |
| `Cc1nc(CN(C)Cc2nc(-c3ccccc3)no2)co1` | 17.28 | 17.01 | -1.927 |
| `COc1ccccc1-c1cc(NC(=O)COCC2CC2)[nH]n1` | -18.52 | 12.94 | 43.6 |
| `Cc1nc(C)c(C(=O)N2CCCC2c2nc(O)cc(C(C)C)n2)s1` (stereo not shown) | -12.02 | 8.36 | -24.6 |
| `O=C(O)C(F)(F)F.O=C(O)C(F)(F)F.O=C(O)C(F)(F)F.[H][C@@]12CCCO[C@]1([H])[C@H](N(C)Cc1ccco1)CN(Cc1ccccn1)C2` | -12.49 | - | -8.303 |
| `COCC(=O)N(C)Cc1ccc(OCc2cccs2)cc1` | 9.28 | 2.174 | -1.841 |
| `[H][C@]12CC[C@]([H])(CN(Cc3cccc(-n4cccn4)c3)C1)N(CCC)C2` | -1.729 | - | 9.471 |
| `CN(Cc1ccc(F)cc1)CC1(O)CCN(C(=O)c2ccncc2)C1` (stereo not shown) | -3.652 | 8.475 | 22.24 |
| `Cc1cnc(N2CCC3(CCCN(c4ccc(C)nn4)C3)C2)nc1` (stereo not shown) | -25.17 | 10.5 | -6.679 |
| `Cn1cc(N2Cc3nc(N4CCOCC4)ncc3C2=O)cn1` | -13.15 | -9.799 | - |

Repeated from the top, 3 entries:

Result for Cc1cccc(CN2CCCC3(CCN(C4CCSCC4)C3)C2=O)c1 (stereo not shown) was Mtb heat-shock: 68.24%; LdMetRS: 8.219%; Mtb growth Cornell: -7.668%.
Result for CC(C)(C)Oc1ccc(C(=O)N2CCOCC2c2ncon2)cc1 (stereo not shown) was Mtb heat-shock: 7.611%; LdMetRS: 2.507%.
Result for CCc1cnc(N2CCC3(CC2)CCN(c2cnn(C)c2)C3=O)nc1 was Mtb heat-shock: -31.59%; LdMetRS: 6.884%; Mtb growth Cornell: -30.14%.

Data taken from ChEMBL document CHEMBL3988442, “University of Dundee, Small-Polar-MMV Screening Library” (2021).